Earlier results in patent publication US8314084B2, “Device and methods for sequential, regional delivery of multiple cytotoxic agents and directed assembly of wound repair tissues” (priority 2002, dated 2012).

aqueous solubility: poor aqueous solubility
Structure (SMILES): CC(=O)O[C@H]1C(=O)[C@@]2(C)[C@H]([C@H](OC(=O)c3ccccc3)[C@]3(O)C[C@H](OC(=O)[C@H](O)[C@@H](NC(=O)c4ccccc4)c4ccccc4)C(C)=C1C3(C)C)[C@]1(OC(C)=O)CO[C@@H]1C[C@@H]2O [paclitaxel, Paclitaxel]
